## Percent effect of library compounds

By UniProt entry, the sequences of proteins in these tests, tags left out. Residues count along the entry.
UniProt Q4DA54, 1-478: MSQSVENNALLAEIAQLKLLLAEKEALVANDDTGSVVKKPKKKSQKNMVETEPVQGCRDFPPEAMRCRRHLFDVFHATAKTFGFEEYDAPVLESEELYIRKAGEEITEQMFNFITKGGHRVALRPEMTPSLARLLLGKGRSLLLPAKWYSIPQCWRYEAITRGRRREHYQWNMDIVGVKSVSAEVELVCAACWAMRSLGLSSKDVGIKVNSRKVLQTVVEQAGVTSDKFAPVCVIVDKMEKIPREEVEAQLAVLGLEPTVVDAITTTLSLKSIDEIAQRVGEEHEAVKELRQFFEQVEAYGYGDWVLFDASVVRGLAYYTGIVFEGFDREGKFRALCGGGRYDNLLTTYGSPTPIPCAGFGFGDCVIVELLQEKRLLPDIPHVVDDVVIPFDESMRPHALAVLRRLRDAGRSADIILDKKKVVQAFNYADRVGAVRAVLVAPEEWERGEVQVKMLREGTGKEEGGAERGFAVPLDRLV
UniProt P9WPC5, whole entry: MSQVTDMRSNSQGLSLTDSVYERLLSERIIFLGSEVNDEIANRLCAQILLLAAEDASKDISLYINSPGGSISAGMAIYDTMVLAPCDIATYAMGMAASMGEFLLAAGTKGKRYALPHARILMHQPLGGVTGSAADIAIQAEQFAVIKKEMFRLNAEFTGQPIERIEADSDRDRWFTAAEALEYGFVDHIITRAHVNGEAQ
UniProt P9WPC3, whole entry partner: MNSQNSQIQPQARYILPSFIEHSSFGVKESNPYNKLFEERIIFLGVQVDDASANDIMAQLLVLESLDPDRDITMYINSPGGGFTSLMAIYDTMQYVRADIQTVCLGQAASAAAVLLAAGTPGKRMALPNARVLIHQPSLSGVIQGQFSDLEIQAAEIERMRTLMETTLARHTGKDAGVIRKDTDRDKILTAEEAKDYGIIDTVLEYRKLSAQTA
UniProt Q8IDJ8, 1-583: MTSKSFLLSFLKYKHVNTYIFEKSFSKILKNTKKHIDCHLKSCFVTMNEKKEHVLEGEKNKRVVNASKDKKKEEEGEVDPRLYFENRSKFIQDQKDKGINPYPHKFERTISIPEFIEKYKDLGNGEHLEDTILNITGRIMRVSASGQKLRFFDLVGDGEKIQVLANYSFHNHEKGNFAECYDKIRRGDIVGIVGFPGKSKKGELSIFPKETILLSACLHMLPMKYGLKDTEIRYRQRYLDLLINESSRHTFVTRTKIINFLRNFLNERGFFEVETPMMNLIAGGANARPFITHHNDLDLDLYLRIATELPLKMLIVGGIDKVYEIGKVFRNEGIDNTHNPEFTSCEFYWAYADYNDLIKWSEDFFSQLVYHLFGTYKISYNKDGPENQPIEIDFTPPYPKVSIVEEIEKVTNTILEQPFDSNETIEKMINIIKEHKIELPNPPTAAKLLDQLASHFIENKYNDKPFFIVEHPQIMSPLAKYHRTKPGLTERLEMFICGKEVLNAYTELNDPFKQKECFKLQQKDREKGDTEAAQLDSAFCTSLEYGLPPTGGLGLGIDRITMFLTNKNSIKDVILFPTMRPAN

Each number is a percent effect as filed.
The record does not define 0% and 100%; most values in the screen are far below 50% and negative numbers occur (in some assays of this library far below -100).
This is an unselected part of the compounds tested.
Two or more numbers in one place are separate tests of the same structure; such repeats can differ widely.
A dash means the value is not listed here; it may have been measured.

Leishmania in macrophages: 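Cell assay of Leishmania donovani living inside macrophages; the read-out is not stated. Compounds at 30 µM. Direction is inferred from retests: higher values go with stronger inhibition. Of about 69,000 compounds tested this way, about 1,000 (1.5%) reached 50% or more in at least one test.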
TcHisRS: 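Histidine-tRNA ligase, Trypanosoma cruzi CL Brener (UniProt Q4DA54). Enzyme assay of histidyl-tRNA synthetase; the read-out is not stated. Concentration: 30 µM. Higher reads as stronger inhibition (inferred: compounds with an IC50 in retests scored well above the rest). Of about 69,000 compounds tested this way, about 31 (0.045%) reached 50% or more in at least one test.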
ClpP1P2: 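ClpP1P2, Mycobacterium tuberculosis (UniProt P9WPC5 and UniProt P9WPC3). Protease assay of ClpP1P2, read by the AMC dye that it sets free. Compounds at 50 µM. Direction is inferred from only a few compounds that gave an IC50; most scored high, so higher reads as stronger inhibition. Most other retested compounds had strongly negative values. Of about 69,000 compounds tested this way, about 10 (0.015%) reached 50% or more in at least one test.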
Toxoplasma: 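Assay of Toxoplasma gondii numbers, read through their beta-galactosidase reporter with a colour substrate. Tested at 10 µM. Higher reads as fewer parasites (inferred from which compounds were picked for retests). Of about 67,000 compounds tested this way, about 260 (0.38%) reached 50% or more in at least one test.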
PfKRS1: 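Enzyme assay of the cytosolic lysyl-tRNA synthetase in 384-well plates, read by luminescence. Target: Lysine-tRNA ligase, Plasmodium falciparum 3D7 (UniProt Q8IDJ8). Compounds at 30 µM. Direction is inferred from only a few compounds that gave an IC50; most scored high, so higher reads as stronger inhibition. About 69,000 compounds were tested under these conditions; 0.071% (about 49) showed 50% or more at least once.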

| # | compound | Leishmania in macrophages | TcHisRS | ClpP1P2 | Toxoplasma | PfKRS1 |
|---|---|---|---|---|---|---|
| 1 | `CC(C)n1c2ccccc2c2c1cc(C(=O)O)n2C(=O)N(C)C` | 36.76 | 9.524 | -10.51 | -0.2909 | 4.226 |
| 2 | `CN(C)C(=O)c1ccc2c(c1)N(C)C(CC(=O)NCCOCCO)CO2` (stereo not shown) | -13.31 | 2.116 | -9.076 | 1.925 | -7.322 |
| 3 | `N#Cc1cccc(NC2CC(=O)N(Cc3ccccc3Cl)C2)n1` (stereo not shown) | -24.86 | -0.578 | -10.26 | -3.605 | 1.021 |
| 4 | `CC(CN(C)C(=O)c1cn(C)nc1-c1ccc(F)cc1F)C(=O)O` (stereo not shown) | 4.812 | -0.578 | 18.21 | -7.995 | 2.269 |
| 5 | `CSCCCN(CCN1CCOCC1)Cc1ccco1` | 23.5 | 4.478 | 16.18 | -10.86 | 3.4 |
| 6 | `O=c1cc(CN2CCCC2)nc2n1CCCN(CC1CCOCC1)C2` | 19.46 | 1.149 | 5.944 | 10.78 | -3.034 |
| 7 | `O=C(C1CC1)N1CCOC2(CCNCC2)C1` | - | 6.349 | -4.327 | - | 4.74 |
| 8 | `CCn1ccnc1S(=O)(=O)Cc1c(C)cc(C)c(C(C)=O)c1C` | 13.69 | 4.433 | -6.694 | 3.662 | 7.588 |
| 9 | `CC(=O)N1[C@H](CN(C)C)C[C@@H]2CN(c3ncc(F)cn3)CC[C@@H]21` | - | 4.813 | -0.04275 | - | 2.707 |
| 10 | `CCC(CO)N(Cc1ccsc1)Cc1cccc(O)c1` (stereo not shown) | 29.16 | 5.202 | 0.2883 | 1.111 | 4.079 |
| 11 | `[H][C@]12CCN(C(=O)c3cc(CN(CC)CC)c(CC)o3)C[C@]([H])(CC1)N2` | 3.601 | - | - | 8.182 | - |
| 12 | `O=S(=O)(N1CCOCC1)N1CCOC(CCc2ccccc2)C1` (stereo not shown) | 13.98 | 1.604 | -5.527 | 6.18 | 0.5765 |
| 13 | `CC(C)CN(C(=O)Nc1cccnc1)C1CC1` | 28.95 | 10 | 2.77 | -4.07 | 4.575 |
| 14 | `COc1ccc(OCCN(C)S(=O)(=O)N2CCOCC2)cc1` | 11 | 0.4926 | -2.911 | 2.497 | 8.76 |
| 15 | `Cc1cc(CN2C[C@@H]3COC[C@]3(CNC(=O)c3ccno3)C2)no1` | - | 1.657 | 0.4558 | - | -4.739 |
| 16 | `O=C(c1ccco1)N1CCCC2(CN(Cc3ccsc3)CCO2)C1` (stereo not shown) | - | 3.483 | -9.75 | - | 4.708 |
| 17 | `CCOCCC(=O)N(C)c1ccc(F)c(Cl)c1` | 15.03 | 4.972 | -6.512 | 2.782 | 0.4882 |
| 18 | `c1ccc(CN2C[C@H]3CCC[C@@]3(COCC3CC3)C2)nc1` | - | 1.075 | -2.441 | - | -0.8533 |
| 19 | `Fc1ccc(CN2CCC3(CCCN(c4nncs4)C3)C2)cc1` (stereo not shown) | - | 5.435 | -0.1484 | - | 0.5411 |
| 20 | `COc1ccc(C)cc1CSCCn1nc2ccccn2c1=O` | 14.58 | -4.151 | 12.58 | -1.713 | 2.057 |
| 21 | `Cc1cccc(CN2CCc3[nH]nc(C(=O)N4CCOCC4)c3C2)n1` | -1.335 | 3.797 | 11.13 | -4.477 | 2.58 |
| 22 | `Cc1ccc(C(=O)N2CC[C@]3(C[C@@H](OCc4ccccn4)CO3)C2)nc1` | - | 4.902 | 4.619 | - | -2.888 |
| 23 | `CCN1Cc2ccccc2CC2(CCN(CC(=O)O)CC2)C1=O.O=C(O)C(F)(F)F` | 12.02 | - | - | 25.23 | - |
| 24 | `Cc1cc(N2CCC(N(C)C(=O)c3ccccc3F)CC2)nc(C)n1` | 35.99 | 6.098 | -0.7555 | -8.745 | 11.99 |
| 25 | `O=C(O)c1cc(NS(=O)(=O)c2ccccc2F)ccc1N1CCSCC1` | 12.62 | 3.191 | 9.53 | -3.496 | 2.269 |
| 26 | `[H][C@@]12C[C@H](c3ccnc(C)n3)O[C@@]1([H])CCN(c1cc(OC)ncn1)C2` | 16.01 | - | - | 1.325 | - |
| 27 | `O=C(c1nc(N2CCCC2)ncc1Cl)N1CCN(Cc2ccsc2)CC1` | 1.991 | 11.52 | -1.851 | -20.89 | 4.242 |
| 28 | `COc1ccc(CN2CCC3(CC(Nc4ccncn4)C3)C2)c(OC)c1` (stereo not shown) | 7.912 | 2.151 | -2.178 | 1.158 | 9.182 |
| 29 | `CN(C)S(=O)(=O)N1C[C@@H](OCc2cccnc2)[C@H]2OCCC[C@H]21` | - | 9.091 | -1.584 | - | -0.7114 |
| 30 | `Cc1ccc(Oc2ncccc2C(=O)O)c(C)c1` | 45.08 | 4.545 | -2.08 | 7.287 | 3.473 |
| 31 | `CC(C)OCCN1CCN(C(C)c2nc(C3CC3)no2)CC1` (stereo not shown) | 6.668 | 3.207 | -5.871 | 11.48 | -1.367 |
| 32 | `CCC(CO)n1cnc2scc(C)c2c1=O` (stereo not shown) | 32.98 | 4.95 | 0.89 | -12.09 | 1.419 |
| 33 | `O=C(COc1cccc(F)c1)N1C[C@@H](O)[C@H](N2CCOCC2)C1` | 5.796 & -5.632 | 6.593 | -7.769 | -15.48 | 2.664 |
| 34 | `O=C(c1ccc(CN2CCCCC2)cc1)N1Cc2cnn(CCO)c2C1` | 4.685 | 0 | 24.23 | -9.521 | -0.4383 |
| 35 | `CSCC(CCO)NC(=O)Nc1cccc(Br)c1C` (stereo not shown) | -46.38 | 9.756 | 0.2098 | -4.508 | 4.201 |
| 36 | `Cc1c(Cn2cc(Cl)c(N)n2)cnn1C` | 21.36 | 6.878 | -0.1222 | -8.519 | 2.379 |
| 37 | `O=c1[nH]c(C2CCOC2)nc2ccc(Cl)cc12` (stereo not shown) | -26.07 | 14.12 | -11.96 | 6.18 | -6.057 |
| 38 | `Cc1ccc(CN2CCc3ncnc(C4CC4)c3CC2)s1.O=C(O)C(F)(F)F` | -40.81 | - | - | 1.068 | - |
| 39 | `[H][C@@]12C[C@H](C(=O)NCC(C)C)[C@@]([H])(CN(c3ncc(CC)cn3)C1)O2` | 13.41 | - | - | 7.143 | - |
| 40 | `CCOCC1CN(c2ccncn2)Cc2cnn(CC)c21` (stereo not shown) | - | 12.4 | 45.73 | - | 4.397 |
| 41 | `CCS(=O)(=O)c1ccccc1C(=O)N1CCCC(n2cccn2)C1` (stereo not shown) | -13.25 | 4.035 | -15.04 | -3.817 | -1.012 |
| 42 | `Cc1c(C(=O)O)nnn1-c1cccc2cccnc12` | 27.01 | 5.172 | 0.5354 | 3.591 | 5.982 |
| 43 | `Cc1ccsc1CNc1cc(N2CCCC2CO)ncn1` (stereo not shown) | -6.334 | 2.632 | 8.538 | -0.7312 | -1.21 |
| 44 | `COCC1CN(C(=O)COc2ccccc2)Cc2ncn(C)c21.O=C(O)C(F)(F)F` (stereo not shown) | 13.69 | - | - | -6.634 | - |
| 45 | `CC(C)CCN1CCN(c2ncnc3nc(N)ccc23)CC1` | -16.38 | 8.824 | 0.869 | 3.837 | 1.15 |
| 46 | `COc1cccc2c1OCC(C(=O)N1CCN(S(=O)(=O)N(C)C)CC1)C2` (stereo not shown) | 4.365 | 2.513 | -0.6606 | -8.597 | -1.311 |
| 47 | `CCCS(=O)(=O)CCSc1cccc(C#N)c1` | 1.255 | 4.103 | -7.835 | 5.297 | 2.097 |
| 48 | `[H][C@@]12CN(C(=O)C3CCOCC3)C[C@]1([H])OCCN2CCN(C)C` | 22.63 | - | - | 10.37 | - |
| 49 | `CCOC(=O)C1(O)CCN(C(=O)Nc2cccc(CC)c2)CC1` | 40.43 | 3.704 | 0.4465 | -7.926 | 3.419 |
| 50 | `O=C1CC(c2ccncc2)C2(CCN(C(=O)c3cccs3)CC2)N1` (stereo not shown) | - | 0 | 22.74 | - | -1.463 |
| 51 | `COCC1CN(C(=O)c2cnc(C)cn2)Cc2ncnn2C1` (stereo not shown) | -19.69 | 6.931 | -4.486 | 2.11 | -0.4493 |
| 52 | `CCc1nc(CN2CCCN(CC(=O)N3CCOCC3)CC2)no1` | -6.007 | 3.509 | 19.4 | 9.379 | -3.087 |
| 53 | `[H][C@@]12CCCN1CCCN(c1nc(-c3ccco3)nc3c1CCNCC3)C2` | 13.4 | - | - | 16.51 | - |
| 54 | `COC(=O)CCC(=O)N1CCC2(CN(Cc3cccc(Cl)c3)C2)C1` | -11.56 | 7.143 | -2.252 | -1.012 | 6.899 |
| 55 | `CN1CC2(CCN(CC3CC3)CC2)COc2ccccc2S1(=O)=O` | - | 6.542 | -17.34 | - | -5.51 |
| 56 | `O=C(Nc1cccnc1N1CCSCC1)c1ccc2c(c1)OCO2` | 18.96 | 9.392 | -6.983 | -0.9377 | 12.37 |
| 57 | `Cn1cc(CNS(=O)(=O)c2cc(F)ccc2F)cn1` | -4.13 | 7.937 | -1.648 | 0.05875 | 2.285 |
| 58 | `Cc1ccsc1C(=O)NCc1ccnc(N2CCN(C)CC2)c1` | 18.62 | 2.941 | -42.71 | 10.21 | 2.548 |
| 59 | `O=C1NCc2ccccc2CC12CCN(Cc1ccncc1Cl)C2` (stereo not shown) | 15 | 4.142 | -9.044 | 9.382 | -4.342 |
| 60 | `O=C(O)C(F)(F)F.O=C1CC(c2ccncc2)C2(CCN(C(=O)c3ccc[nH]3)CC2)N1` (stereo not shown) | -20.4 | - | - | 0.5917 | - |
| 61 | `CCc1ccc(S(=O)(=O)Nc2c(C)cccc2C(=O)O)s1` | 14.67 | -0.7576 | 7.357 | 0.3139 | 1.795 |

From ChEMBL document CHEMBL3988442, “University of Dundee, Small-Polar-MMV Screening Library” (2021).